Experimental data as given in article PMC5997322 (PLoS ONE, 2018).

Experiment: general procedure: Fmoc solid-phase peptide synthesis
Details: whole synthesis, analytical reversed-phase HPLC with UV detector

With YLFSVHWPPLKA the “final HPLC purity” value was 98%.

End groups of sequences in plain letters are not given here.
